At least one structure is not confirmed: it was looked up by name or label, or the drawing left a doubt.
Tests used:
[1] = test system: androgenetic alopecia in women; details: cited from earlier work
[2] = test system: Androgenetic Alopecia Males; assay: Androgenetic Alopecia Males Arm 1, Global Photographic Assessment (Omnia System); assay type: in vivo, human; details: Cepharanthine 2 mg once daily, at 6 months
From the text: (§1) The description of the experiments and their results are presented in the 4 tables below. In these experiments the subjects self-administered CEP for at least 6 months.

[3] = test system: congenital alopecia, chronic telogen effluvium and traction alopecia; assay: CEP in subjects suffering from different forms of hair loss; assay type: in vivo, human
androgenetic alopecia = assay: CEP in subjects with androgenetic alopecia, overall findings of the experiments; assay type: in vivo, human
From the text: It is effective when dosed once daily or even once every other day, both of which make compliance much easier than dividing the doses into greater frequency. It is effective without regard to consumption following meals.
as §1
Some users were not perfectly compliant, sometimes skipping their daily doses. […] The expected effective dose range is from about 0.5 mg per day to about 100 mg per day.

[4] = test system: Androgenic Alopecia Females; assay: Androgenic Alopecia Females, Global Photographic Assessment (Omnia System); assay type: in vivo, human; details: Cepharanthine 2 mg daily, at 6 months
From the text: as §1

[5] = test system: Androgenetic Alopecia Males; assay: Androgenetic Alopecia Males Arm 2, Global Photographic Assessment (Omnia System); assay type: in vivo, human; details: Cepharanthine 2 mg once every other day, at 6 months
From the text: as §1

[6] = women aged 18-45 years, mild to moderate hair loss, 8 months

SMILES	retaining and regrowing hair, 5% solution compared with 2% solution ([1]; small clinical trials, androgenetic alopecia in women)	women reporting moderate hair regrowth [1, 6]	women with minimal regrowth [1, 6]	active subjects demonstrated improvement relative to baseline (Global Photographic Assessment) [2]	beneficial effect in chronic telogen effluvium ([3]; chronic telogen effluvium)	beneficial effect in congenital alopecia ([3]; congenital alopecia (atrichia congenita, hypotrichosis congenita etc))	beneficial effect in traction alopecia ([3]; traction alopecia)	hair pigmentation (androgenetic alopecia; in some of the successfully treated subjects, hair darker, in a few cases completely dark after white)	effect in treating androgenetic alopecia (androgenetic alopecia; males and females, dosed once daily or once every other day, without regard to meals)	active subjects demonstrated improvement relative to baseline (Global Photographic Assessment) [4]	active subjects demonstrated improvement relative to baseline (Global Photographic Assessment) [5]
Nc1cc(N2CCCCC2)nc(N)[n+]1[O-] [minoxidil, Minoxidil]	significantly more effective	19%	40%								
COc1ccc2cc1Oc1ccc(cc1)C[C@H]1c3c(cc4c(c3Oc3cc5c(cc3OC)CCN(C)[C@@H]5C2)OCO4)CCN1C [Cepharanthine]				At 6 months, 16 of 20	without any beneficial effects	without any beneficial effects	without any beneficial effects	great improvement in pigmentation	effective in treating androgenetic alopecia in both males and females	At 6 months, 11 of 15	At 6 months, 14 of 20

Source: patent US9855204B1, “Methods and compositions for treating androgenetic alopecia” (priority 2015, dated 2018)
